Laboratory results as given in article PMC4376871.
Positions count from the first letter of the chain named. Results are given in words; binding and its absence hold for the method and conditions named. For some of these results: A result given as binding can be weak or reduced; the word gives no strength. Where a sequence is shown, tags or fusion partners need not be part of it. For some of these results: Binding seen in cells or lysates may run through a third protein.

How the values were obtained:
[1] = target: T1, AtSK22 fused at its C-terminus to the N-terminal portion of EYFP (Arabidopsis thaliana (ecotype Sei-0 cDNA)) (UniProt Q39012); experiment: split reporter; BiFC with cEYFP and nEYFP fusions co-agroinfiltrated into leaves of transgenic N. benthamiana CFP-H2B; confocal microscopy 48 h after infiltration
T1 sequence: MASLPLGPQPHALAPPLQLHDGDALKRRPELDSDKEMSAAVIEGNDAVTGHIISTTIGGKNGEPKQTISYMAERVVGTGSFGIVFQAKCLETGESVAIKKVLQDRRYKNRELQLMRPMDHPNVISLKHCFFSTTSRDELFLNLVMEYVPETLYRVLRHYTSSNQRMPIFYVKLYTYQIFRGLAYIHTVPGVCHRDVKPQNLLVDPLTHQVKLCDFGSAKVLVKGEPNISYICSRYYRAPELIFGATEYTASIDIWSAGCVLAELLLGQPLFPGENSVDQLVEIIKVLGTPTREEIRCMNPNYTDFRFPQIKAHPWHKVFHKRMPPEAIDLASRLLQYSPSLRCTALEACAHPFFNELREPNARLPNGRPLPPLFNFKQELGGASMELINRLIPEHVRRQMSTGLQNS

[2] = target: T2, AtSK21 fused at its C-terminus to the N-terminal portion of EYFP (Arabidopsis thaliana (ecotype Sei-0 cDNA)) (UniProt Q39011); experiment: as above
T2 sequence: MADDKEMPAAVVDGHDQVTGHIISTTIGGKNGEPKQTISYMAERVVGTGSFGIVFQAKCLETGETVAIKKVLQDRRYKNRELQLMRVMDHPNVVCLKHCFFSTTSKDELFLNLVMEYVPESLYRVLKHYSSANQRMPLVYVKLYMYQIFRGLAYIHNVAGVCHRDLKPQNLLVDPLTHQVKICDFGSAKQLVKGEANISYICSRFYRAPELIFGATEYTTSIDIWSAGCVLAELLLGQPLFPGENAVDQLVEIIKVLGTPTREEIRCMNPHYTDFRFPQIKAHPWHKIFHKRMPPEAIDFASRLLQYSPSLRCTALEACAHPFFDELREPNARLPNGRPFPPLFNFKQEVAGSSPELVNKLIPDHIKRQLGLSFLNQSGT

[3] = target: T3, AtSK23 fused at its C-terminus to the N-terminal portion of EYFP (Arabidopsis thaliana (ecotype Sei-0 cDNA)) (UniProt Q39010); experiment: as above
T3 sequence: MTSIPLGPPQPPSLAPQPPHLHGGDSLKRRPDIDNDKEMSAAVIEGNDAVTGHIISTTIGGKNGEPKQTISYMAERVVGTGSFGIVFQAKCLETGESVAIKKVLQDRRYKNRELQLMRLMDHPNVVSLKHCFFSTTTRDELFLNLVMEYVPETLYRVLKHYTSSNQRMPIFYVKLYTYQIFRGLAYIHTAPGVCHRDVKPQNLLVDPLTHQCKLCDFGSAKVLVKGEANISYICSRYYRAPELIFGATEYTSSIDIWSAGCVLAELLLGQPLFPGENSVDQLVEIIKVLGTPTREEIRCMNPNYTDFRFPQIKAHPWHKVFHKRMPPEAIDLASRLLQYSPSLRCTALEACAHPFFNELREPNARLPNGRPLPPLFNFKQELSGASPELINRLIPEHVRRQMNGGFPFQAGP

[4] = target: T4, Arabidopsis SHAGGY-like protein kinase AtSK23 fused to the GAL4 DNA binding domain (Arabidopsis thaliana (ecotype Sei-0 cDNA)) (UniProt Q39010); experiment: two-hybrid; yeast Y187; C4 or C4 mutants on AD, AtSKs on DBD; quantitative ß-galactosidase activity (Galacto-Star, chemiluminescence) relative to the C4/AtSK23 interaction
T4 sequence: T3 sequence

[5] = target: T5, AtSK41 fused at its C-terminus to the N-terminal portion of EYFP (Arabidopsis thaliana (ecotype Sei-0 cDNA)) (UniProt Q39019); experiment: split reporter; BiFC with cEYFP and nEYFP fusions co-agroinfiltrated into leaves of transgenic N. benthamiana CFP-H2B; confocal microscopy 48 h after infiltration
T5 sequence: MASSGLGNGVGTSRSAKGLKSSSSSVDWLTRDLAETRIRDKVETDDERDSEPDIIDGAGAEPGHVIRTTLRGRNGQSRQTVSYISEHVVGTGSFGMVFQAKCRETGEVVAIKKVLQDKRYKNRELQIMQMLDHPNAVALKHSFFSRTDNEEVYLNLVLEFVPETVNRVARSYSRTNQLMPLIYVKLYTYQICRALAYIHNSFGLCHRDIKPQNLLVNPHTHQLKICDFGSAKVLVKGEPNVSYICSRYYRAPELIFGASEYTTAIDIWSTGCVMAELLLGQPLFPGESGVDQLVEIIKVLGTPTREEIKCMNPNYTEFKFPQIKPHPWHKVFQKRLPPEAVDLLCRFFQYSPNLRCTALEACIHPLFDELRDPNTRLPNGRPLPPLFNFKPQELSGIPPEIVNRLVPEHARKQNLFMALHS

[6] = target: T6, Kinase-dead AtSK23K101R fused to the N-terminal portion of EYFP (Arabidopsis thaliana (ecotype Sei-0 cDNA)) (UniProt Q39010); experiment: as above
T6 sequence: T3 sequence with K101R

[7] = target: T7, Kinase-dead AtSK21K69R fused to the N-terminal portion of EYFP (Arabidopsis thaliana (ecotype Sei-0 cDNA)) (UniProt Q39011); experiment: as above
T7 sequence: T2 sequence with K69R

[8] = target: T8, Arabidopsis SHAGGY-like protein kinase AtSK21 fused to the GAL4 DNA binding domain (Arabidopsis thaliana (ecotype Sei-0 cDNA)) (UniProt Q39011); experiment: two-hybrid; yeast Y187; C4 or C4 mutants on AD, AtSKs on DBD; quantitative ß-galactosidase activity (Galacto-Star, chemiluminescence) relative to the C4/AtSK23 interaction
T8 sequence: T2 sequence

[9] = target: T9, Arabidopsis SHAGGY-like protein kinase AtSK22 fused to the GAL4 DNA binding domain (Arabidopsis thaliana (ecotype Sei-0 cDNA)) (UniProt Q39012); experiment: as above
T9 sequence: T1 sequence

Substance	binding [1]	binding [2]	binding [3]	binding [4]	binding [5]	binding [6]	binding [7]	binding [8]	binding [9]
BCTV C4 S49A mutant fused at its C-terminus to the C-terminal portion of EYFP	no binding	no binding	no binding	–	–	–	–	–	–
BCTV C4 A49T reversion mutant fused at its C-terminus to the C-terminal portion of EYFP	binds	binds	binds	–	–	–	–	–	–
BCTV C4 G2A N-myristoylation site mutant fused to the GAL4 activation domain	–	–	–	binds	–	–	–	–	–
BCTV C4 protein fused at its C-terminus to the C-terminal portion of EYFP	binds	binds	binds	–	no binding	binds weakly	no binding	–	–
BCTV C4 A49T reversion mutant (Thr at position 49) fused to the GAL4 activation domain	–	–	–	binds	–	–	–	binds	binds
BCTV C4 S49A mutant fused to the GAL4 activation domain	–	–	–	no binding	–	–	–	no binding	no binding
